Reference: the supplement of paper PMC8728848
The list shows a part of the results.

What was measured:
Assay in all cases: glycan array binding signal (z-score within array); higher = stronger binding
Settings in all cases: glycan notation: IUPAC condensed, linker removed
[1] = target: Fuc(a1-2)Gal(b1-4)GlcNAc(b1-3)Gal(b1-4)GlcNAc(b1-3)Gal(b1-4)GlcNAc
Method in brief: (§1)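 Glycan array data came from 3228 arrays in the Consortium for Functional Glycomics database, and only arrays with an available protein sequence were kept. Glycan names were put into IUPAC-condensed notation, and columns mapping to the same glycan were averaged. The binding signal is a within-array Z-score, averaged across arrays of one protein sequence run at different concentrations or buffers and across linkers. A negative Z-score can be read as non-binding.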

[2] = target: Fuc(a1-2)Gal(b1-4)GlcNAc(b1-3)GalNAc
Method in brief: as §1

[3] = target: Fuc(a1-2)Gal(b1-4)GlcNAc(b1-3)[Fuc(a1-2)Gal(b1-4)GlcNAc(b1-6)]GalNAc
Method in brief: as §1

[4] = target: Fuc(a1-2)Gal(b1-4)GlcNAc(b1-3)[Fuc(a1-3)[Gal(b1-4)]GlcNAc(b1-6)]Gal(b1-4)Glc
Method in brief: as §1

[5] = target: Fuc(a1-2)Gal(b1-4)GlcNAc(b1-6)GalNAc
Method in brief: as §1

[6] = target: Fuc(a1-2)Gal(b1-4)GlcNAc6S
Method in brief: as §1

[7] = target: Fuc(a1-2)Gal(b1-4)[Fuc(a1-3)]GlcNAc
Method in brief: as §1

[8] = target: Fuc(a1-2)Gal(b1-4)[Fuc(a1-3)]GlcNAc(b1-2)Man(a1-3)[Fuc(a1-2)Gal(b1-4)[Fuc(a1-3)]GlcNAc(b1-2)Man(a1-6)]Man(b1-4)GlcNAc(b1-4)[Fuc(a1-6)]GlcNAc
Method in brief: as §1

[9] = target: Fuc(a1-2)Gal(b1-4)[Fuc(a1-3)]GlcNAc(b1-2)[Fuc(a1-2)Gal(b1-4)[Fuc(a1-3)]GlcNAc(b1-4)]Man(a1-3)[Fuc(a1-2)Gal(b1-4)[Fuc(a1-3)]GlcNAc(b1-2)Man(a1-6)]Man(b1-4)GlcNAc(b1-4)GlcNAc
Method in brief: as §1

[10] = target: Fuc(a1-2)Gal(b1-4)[Fuc(a1-3)]GlcNAc(b1-3)Gal(b1-4)[Fuc(a1-3)]GlcNAc
Method in brief: as §1

[11] = target: Fuc(a1-2)Gal(b1-4)[Fuc(a1-3)]GlcNAc(b1-3)Gal(b1-4)[Fuc(a1-3)]GlcNAc(b1-3)Gal(b1-4)[Fuc(a1-3)]GlcNAc
Method in brief: as §1

[12] = target: Fuc(a1-2)Gal(b1-4)[Fuc(a1-3)]GlcNAc(b1-3)GalNAc
Method in brief: as §1

[13] = target: Fuc(a1-2)Gal(b1-4)[Fuc(a1-3)]GlcNAc(b1-3)[Neu5Ac(a2-6)Gal(b1-4)GlcNAc(b1-6)]Gal(b1-4)Glc
Method in brief: as §1

[14] = target: Fuc(a1-2)Gal3S(b1-4)GlcNAc
Method in brief: as §1

[15] = target: Fuc(a1-2)Gal6S(b1-3)GlcNAc
Method in brief: as §1

[16] = target: Fuc(a1-2)Gal6S(b1-3)GlcNAc6S
Method in brief: as §1

Fuc(a1-2)Gal6S(b1-4)Glc = target: Fuc(a1-2)Gal6S(b1-4)Glc
Method in brief: as §1

[17] = target: Fuc(a1-2)Gal6S(b1-4)Glc6S
Method in brief: as §1

Fuc(a1-2)[Gal(a1-3)]Gal = target: Fuc(a1-2)[Gal(a1-3)]Gal
Method in brief: as §1

[18] = target: Fuc(a1-2)[Gal(a1-3)]Gal(b1-3)GalNAc
Method in brief: as §1

[19] = target: Fuc(a1-2)[Gal(a1-3)]Gal(b1-3)GalNAc(b1-3)Gal(a1-4)Gal(b1-4)Glc
Method in brief: as §1

[20] = target: Fuc(a1-2)[Gal(a1-3)]Gal(b1-3)GlcNAc
Method in brief: as §1

[21] = target: Fuc(a1-2)[Gal(a1-3)]Gal(b1-3)GlcNAc(b1-2)Man(a1-3)[Fuc(a1-2)[Gal(a1-3)]Gal(b1-3)GlcNAc(b1-2)Man(a1-6)]Man(b1-4)GlcNAc(b1-4)GlcNAc
Method in brief: as §1

[22] = target: Fuc(a1-2)[Gal(a1-3)]Gal(b1-3)GlcNAc(b1-2)Man(a1-3)[Fuc(a1-2)[Gal(a1-3)]Gal(b1-3)GlcNAc(b1-2)Man(a1-6)]Man(b1-4)GlcNAc(b1-4)[Fuc(a1-6)]GlcNAc
Method in brief: as §1

[23] = target: Fuc(a1-2)[Gal(a1-3)]Gal(b1-3)GlcNAc(b1-3)GalNAc
Method in brief: as §1

[24] = target: Fuc(a1-2)[Gal(a1-3)]Gal(b1-3)GlcNAc(b1-6)GalNAc
Method in brief: as §1

[25] = target: Fuc(a1-2)[Gal(a1-3)]Gal(b1-4)Glc
Method in brief: as §1

[26] = target: Fuc(a1-2)[Gal(a1-3)]Gal(b1-4)GlcNAc
Method in brief: as §1

[27] = target: Fuc(a1-2)[Gal(a1-3)]Gal(b1-4)GlcNAc(b1-2)Man
Method in brief: as §1

[28] = target: Fuc(a1-2)[Gal(a1-3)]Gal(b1-4)GlcNAc(b1-2)Man(a1-3)[Fuc(a1-2)[Gal(a1-3)]Gal(b1-4)GlcNAc(b1-2)Man(a1-6)]Man(b1-4)GlcNAc(b1-4)GlcNAc
Method in brief: as §1

B1: Aap arpt (Staphylococcus epidermidis) (protein)
chain: NNEAPQMSSTLQAEEGSNAEAPQSEPTKAEEGGNAEAAQSEPTKAEEGGNAEAPQSEPTKAEEGGNAEAAQSEPTKTEEGSNVKAAQSEPTKAEEGSNAEAPQSEPTKTEEGSNAKAAQSEPTKAEEGGNAEAAQSEPTKTEEGSNAEAPQSEPTKAEEGGYAEAPQSEPTKTEEGGNAEAPNVPTIKA
glycan array binding signal (z-score) [1]: 0.9
glycan array binding signal (z-score) [2]: -0.839
glycan array binding signal (z-score) [3]: -1.34
glycan array binding signal (z-score) [4]: -0.859
glycan array binding signal (z-score) [5]: 2.11
glycan array binding signal (z-score) [6]: 0.068
glycan array binding signal (z-score) [7]: 0.135
glycan array binding signal (z-score) [8]: -0.48
glycan array binding signal (z-score) [9]: 1.73
glycan array binding signal (z-score) [10]: 0.131
glycan array binding signal (z-score) [11]: 0.053
glycan array binding signal (z-score) [12]: -0.483
glycan array binding signal (z-score) [13]: -0.793
glycan array binding signal (z-score) [14]: 0.184
glycan array binding signal (z-score) [15]: -1.52
glycan array binding signal (z-score) [16]: 0.327
glycan array binding signal (z-score) (Fuc(a1-2)Gal6S(b1-4)Glc): 0.462
glycan array binding signal (z-score) [17]: 0.373
glycan array binding signal (z-score) (Fuc(a1-2)[Gal(a1-3)]Gal): -0.638
glycan array binding signal (z-score) [18]: -0.434
glycan array binding signal (z-score) [19]: -0.802
glycan array binding signal (z-score) [20]: -0.351
glycan array binding signal (z-score) [21]: -0.069
glycan array binding signal (z-score) [22]: -0.12
glycan array binding signal (z-score) [23]: 0.244
glycan array binding signal (z-score) [24]: -0.422
glycan array binding signal (z-score) [25]: -0.416
glycan array binding signal (z-score) [26]: 0.036
glycan array binding signal (z-score) [27]: 0.725
glycan array binding signal (z-score) [28]: 0.857
